{"source": "patent US20220233668A1", "about": "(VICTORIA LINK LTD., priority 2019, published 2022)", "assay": "general procedure: Fmoc solid-phase peptide synthesis; HMPB ChemMatrix resin preloaded with the first Fmoc amino acid; diisopropylcarbodiimide / Oxyma", "conditions": "conjugation step", "data": [{"substance": "V.Ox.FFRK.NVFSP", "values": [{"measurement": "conjugation yield", "result": 47, "unit": "%"}]}, {"substance": "V.Ox.FFRK.NVFLP", "values": [{"measurement": "conjugation yield", "result": 46, "unit": "%"}]}, {"substance": "V.S.NVYLP", "values": [{"measurement": "conjugation yield", "result": 73, "unit": "%"}]}, {"substance": "V.Ox.FFRK.EIYSP", "values": [{"measurement": "conjugation yield", "result": 84, "unit": "%"}]}, {"substance": "V.Ox.FFRK.NVYSP", "values": [{"measurement": "conjugation yield", "result": 77, "unit": "%"}]}, {"substance": "V.S.FFRK.NVYSP", "values": [{"measurement": "conjugation yield", "result": 82, "unit": "%"}]}]}
